Percent effect of library compounds

By UniProt entry, the sequences of proteins in these tests, tags left out.
UniProt P9WFT3, whole entry: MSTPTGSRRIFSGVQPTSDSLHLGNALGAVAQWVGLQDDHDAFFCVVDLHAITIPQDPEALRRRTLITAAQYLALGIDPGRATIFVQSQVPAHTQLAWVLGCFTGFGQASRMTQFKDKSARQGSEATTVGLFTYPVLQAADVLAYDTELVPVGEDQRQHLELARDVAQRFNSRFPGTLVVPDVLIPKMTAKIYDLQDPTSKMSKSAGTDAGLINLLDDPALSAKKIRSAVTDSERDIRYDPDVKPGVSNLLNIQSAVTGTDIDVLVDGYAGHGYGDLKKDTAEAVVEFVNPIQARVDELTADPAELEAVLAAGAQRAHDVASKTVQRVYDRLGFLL

Data taken from ChEMBL document CHEMBL3988442, “University of Dundee, Small-Polar-MMV Screening Library” (2021).

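Tryptophan-tRNA ligase, Mycobacterium tuberculosis (UniProt P9WFT3). Enzyme assay of tryptophanyl-tRNA synthetase; the read-out is not stated. Tested at 10 µM. Direction is not recorded; retested compounds ran higher, which suggests that high means inhibition. Size under these conditions: about 65,000 compounds, about 64 of them at 50% or above in at least one test.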

The filed quantity is “Percent Effect” (%).
The record does not define 0% and 100%; most values in the screen are far below 50% and negative numbers occur (in some assays of this library far below -100).
This is an unselected part of the compounds tested.

- Cc1nc(N2CCOCC2)nc(C)c1NC(=O)Cc1ccc(Cl)cc1 : 2.964%
- O=c1cc(N2CCCC2)cnn1Cc1noc(C2CCCO2)n1 (stereo not drawn) : 0.2179%
- CC(NC(=O)c1ccoc1)C(=O)N(C)Cc1cccc(C(F)(F)F)c1 (stereo not drawn) : 5.576%
- c1ccc(CN2C[C@@H]3CC[C@H](C2)N(Cc2nnc(C4CC4)o2)C3)cc1 : 6.409%
- Cn1cc(NS(=O)(=O)c2ccc(F)c(F)c2)ccc1=O : -4.073%
- O=C1CCc2cc(NC(=O)C3CCCN3c3nccs3)ccc2N1 (stereo not drawn) : -0.9358%
- O=C(NCc1ccco1)[C@H]1COC[C@H]2CN(Cc3ccccn3)C[C@H]21 : -2.502%
- CCc1noc(CNc2nc(-c3cccnc3)nc3c2CCNCC3)n1 : -6.942%
- COCCCNc1nccc(-c2c[nH][nH]c2=O)n1 : -0.4223%
- CC(C)c1n[nH]c(C2CN(C(=O)COc3ccc(F)cc3)CCO2)n1 (stereo not drawn) : -1.711%
- O=C1CCCN1Cc1noc(-c2ccc(Cl)cc2)n1 : 1.296%
- O=C(CN(CC(O)c1ccc(F)cc1)C1CC1)NCc1cccs1 (stereo not drawn) : 7.712%
- CC(C)c1nc(C(=O)N2CCCC(n3cncn3)C2)c[nH]1 (stereo not drawn) : 2.437%
- CN(Cc1ccc(F)cc1)[C@@H]1CN(C(=O)c2cccs2)C[C@H]1O : 3.25%
- COCCC(C)NC(=O)c1cc(Br)c2c(c1)OCCO2 (stereo not drawn) : -0.8939%
- CC(=O)NCCNC(=O)c1cccc(Cn2nc(C)cc2C)c1 : -1.146%
- O=C(NCc1cccc(N2CCCCC2=O)c1)[C@@H](O)c1ccccc1 : 2.197%
- Cn1ccnc1CN1CCCC2(CCN(CC3CCCO3)CC2)C1 (stereo not drawn) : 0.8403%
- C[S+]([O-])c1nncn1CC(=O)c1cccc(Br)c1 (stereo not drawn) : -1.495%
- Cn1cccc1-c1cc(C(=O)N2CC(c3cccnc3)C2)[nH]n1 : 3.258%
- COC(=O)CCNC(=O)c1nc(NS(=O)(=O)c2ccccc2)sc1C : 1.375%
- COc1ccc(-n2cc(CNC(=O)c3ccc[nH]3)nn2)cc1 : -5.432%
- c1cncc(-c2noc(CN3CCc4cncnc4C3)n2)c1 : -3.224%
- c1ccc(NCc2cnc3n2CCN(CC2CCOC2)CC3)nc1 (stereo not drawn) : 2.521%
- CN(Cc1ccco1)[C@@H]1CN(Cc2ccc(F)cc2)[C@@H]2CCCO[C@H]12 : -5.383%
- O=C(O)C1CCCN(C(=O)CCn2ccc3c(Br)cccc32)C1 (stereo not drawn) : 2.249%
- CCN(C)S(=O)(=O)NCC(C)(O)c1ccsc1 (stereo not drawn) : -0.2154%
- c1ccc(OCCN2CCCC(c3noc(C4CC4)n3)C2)cc1 (stereo not drawn) : -3.552%
- Cc1ccccc1CCC(=O)N1CCc2ncnc(NCCO)c2CC1 : 1.232%

2 of the entries, repeated:

structure	Percent Effect
Cc1ccccc1CCC(=O)N1CCc2ncnc(NCCO)c2CC1	1.232
O=C1CCCN1Cc1noc(-c2ccc(Cl)cc2)n1	1.296